Values from PubChem BioAssay AID1259308 (NCATS, 2017)
The deposit covers about 59,000 reagents; below is a random part of them. About 1,510 of all reagents (2.6%) were called active. 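Calls use total luciferase alone and ignore viability, so some active siRNAs may act by altering cell number.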 Further read-outs or replicates are left out here.

- Test: 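Genes whose loss raises luciferase production in HEK293 cells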 (primary screen)
- Cells: human HEK293 embryonic kidney cells stably expressing firefly luciferase (HEK-CMV-Luc2-Hygro)
- Reagent: single siRNA against human genes, 0.8 pmol siRNA per well
- Timing: 72 h
- Measurement: 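Luciferase light (ONE-Glo) measured on one replicate plate set and viability (CellTiter-Glo) on the other, scaled to a negative control siRNA, with robust z-scores and luciferase per cell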
- Direction: total luciferase, z-score: higher = more reporter protein produced
- Active means: 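Active when the median/MAD z-score for overall luciferase is greater than 3; a gene was taken forward for validation with new siRNAs if at least two of its three siRNAs passed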
- Meaning of the calls: active = raised luciferase; inactive = no rise

{"Target gene": "TG (GeneID 7038)", "PubChem SID": "SID160717977", "total luciferase, z-score": -0.807, "Call": "inactive"}
{"Target gene": "TG (GeneID 7038)", "PubChem SID": "SID160717978", "total luciferase, z-score": 0.264, "Call": "inactive"}
{"Target gene": "TG (GeneID 7038)", "PubChem SID": "SID160717979", "total luciferase, z-score": 0.746, "Call": "inactive"}
{"Target gene": "L1CAM (GeneID 3897)", "PubChem SID": "SID160776470", "total luciferase, z-score": 1.08, "Call": "inactive"}
{"Target gene": "L1CAM (GeneID 3897)", "PubChem SID": "SID160776471", "total luciferase, z-score": 0.718, "Call": "inactive"}
{"Target gene": "L1CAM (GeneID 3897)", "PubChem SID": "SID160776472", "total luciferase, z-score": -0.0467, "Call": "inactive"}
{"Target gene": "PTF1A (GeneID 256297)", "PubChem SID": "SID160762419", "total luciferase, z-score": -0.675, "Call": "inactive"}
{"Target gene": "PTF1A (GeneID 256297)", "PubChem SID": "SID160762420", "total luciferase, z-score": 0.344, "Call": "inactive"}
{"Target gene": "PTF1A (GeneID 256297)", "PubChem SID": "SID160762421", "total luciferase, z-score": 0.398, "Call": "inactive"}
{"Target gene": "GLT1D1 (GeneID 144423)", "PubChem SID": "SID160758151", "total luciferase, z-score": 1.01, "Call": "inactive"}
{"Target gene": "GLT1D1 (GeneID 144423)", "PubChem SID": "SID160758152", "total luciferase, z-score": -0.478, "Call": "inactive"}
{"Target gene": "GLT1D1 (GeneID 144423)", "PubChem SID": "SID160758153", "total luciferase, z-score": 0.999, "Call": "inactive"}
